{"source": "paper PMC2675061", "molecular_target": "T1, ERK2, P63086", "T1 chain": "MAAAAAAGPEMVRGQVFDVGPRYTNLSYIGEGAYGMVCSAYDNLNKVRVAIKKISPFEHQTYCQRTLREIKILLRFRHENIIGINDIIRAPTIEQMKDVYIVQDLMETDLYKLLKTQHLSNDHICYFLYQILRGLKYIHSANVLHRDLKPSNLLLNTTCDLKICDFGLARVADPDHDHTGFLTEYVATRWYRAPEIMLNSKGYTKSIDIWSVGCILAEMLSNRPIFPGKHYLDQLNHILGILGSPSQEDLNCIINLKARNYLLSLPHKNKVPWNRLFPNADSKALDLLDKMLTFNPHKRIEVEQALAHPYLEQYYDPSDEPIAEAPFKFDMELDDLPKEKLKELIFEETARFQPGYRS", "test": "cross-linking; BS3 (0.1-1 mM), 100 mM HEPES pH 7.5, 300 mM NaCl, 2.2-5.54 µg/µl complex, 30-120 min, 0-25 °C, no ATP; ERK2 alone, PTP-SL alone and the complex in parallel under the same conditions; products analysed by SDS-PAGE, SEC in SDS and DTT, MALDI-TOF of the product and of its tryptic peptides; both purified", "details": "remark: other sources report otherwise", "note": "These are yes or no findings as the source states them, for the method shown. Some results given as binding are weak or reduced against the parent protein; the word gives no strength."}
{"binder": "ERK2, P63086 1-358 (enzyme) MAAAAAAGPEMVRGQVFDVGPRYTNLSYIGEGAYGMVCSAYDNLNKVRVAIKKISPFEHQTYCQRTLREIKILLRFRHENIIGINDIIRAPTIEQMKDVYIVQDLMETDLYKLLKTQHLSNDHICYFLYQILRGLKYIHSANVLHRDLKPSNLLLNTTCDLKICDFGLARVADPDHDHTGFLTEYVATRWYRAPEIMLNSKGYTKSIDIWSVGCILAEMLSNRPIFPGKHYLDQLNHILGILGSPSQEDLNCIINLKARNYLLSLPHKNKVPWNRLFPNADSKALDLLDKMLTFNPHKRIEVEQALAHPYLEQYYDPSDEPIAEAPFKFDMELDDLPKEKLKELIFEETARFQPGYRS", "values": [{"measurement": "binding", "result": "binds"}]}
